In the supplement of paper PMC12823440, “Inhibitors supercharge kinase turnover through native proteolytic circuits” (Nature, 2025):
Where a name gives a salt, the structure may show the parent alone. This is one part of the list. Hit calls seldom repeat between salt and free forms of one compound.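 In K562 cells expressing nanoluciferase-fused kinases, luminescence was recorded at 4 h intervals between 2 and 18 h, normalized as percent of control with DMSO at 100% and a positive control at 0%. A significant (2 sigma) signal drop marks a time point as decreased. The authors' rule for a hit is not shown and takes in more than the number of time points.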

Protein sequences, listed by entry. Tags and fused reporters are not part of them. Lines headed by an entry give the natural chain unless they say otherwise; changes in a name come on top.
UniProt P28482, whole entry: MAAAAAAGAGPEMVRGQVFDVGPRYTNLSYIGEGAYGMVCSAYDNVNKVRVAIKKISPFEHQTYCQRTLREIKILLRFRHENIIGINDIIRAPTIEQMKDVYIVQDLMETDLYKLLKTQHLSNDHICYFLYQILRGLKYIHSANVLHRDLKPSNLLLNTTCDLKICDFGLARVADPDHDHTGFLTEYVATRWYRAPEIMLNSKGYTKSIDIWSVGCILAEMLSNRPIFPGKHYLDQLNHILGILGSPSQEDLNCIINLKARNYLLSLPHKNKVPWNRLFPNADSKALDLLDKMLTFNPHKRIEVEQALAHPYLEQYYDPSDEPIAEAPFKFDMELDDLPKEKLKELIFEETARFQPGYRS
UniProt P31152, whole entry: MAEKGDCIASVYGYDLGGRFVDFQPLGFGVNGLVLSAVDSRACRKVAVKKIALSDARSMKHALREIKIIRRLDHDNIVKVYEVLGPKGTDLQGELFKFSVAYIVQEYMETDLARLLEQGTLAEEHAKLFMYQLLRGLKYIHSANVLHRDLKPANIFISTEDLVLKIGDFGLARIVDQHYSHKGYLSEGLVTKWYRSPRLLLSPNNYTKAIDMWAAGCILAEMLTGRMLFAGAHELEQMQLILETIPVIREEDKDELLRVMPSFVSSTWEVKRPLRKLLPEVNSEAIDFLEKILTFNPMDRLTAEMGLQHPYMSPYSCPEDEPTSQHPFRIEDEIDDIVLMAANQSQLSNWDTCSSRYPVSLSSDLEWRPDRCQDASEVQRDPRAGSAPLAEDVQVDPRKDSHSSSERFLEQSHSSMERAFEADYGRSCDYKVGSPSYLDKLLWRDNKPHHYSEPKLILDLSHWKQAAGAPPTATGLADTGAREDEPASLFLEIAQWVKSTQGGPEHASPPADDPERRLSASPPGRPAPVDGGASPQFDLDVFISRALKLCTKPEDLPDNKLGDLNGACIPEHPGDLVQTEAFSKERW
UniProt Q9BUB5: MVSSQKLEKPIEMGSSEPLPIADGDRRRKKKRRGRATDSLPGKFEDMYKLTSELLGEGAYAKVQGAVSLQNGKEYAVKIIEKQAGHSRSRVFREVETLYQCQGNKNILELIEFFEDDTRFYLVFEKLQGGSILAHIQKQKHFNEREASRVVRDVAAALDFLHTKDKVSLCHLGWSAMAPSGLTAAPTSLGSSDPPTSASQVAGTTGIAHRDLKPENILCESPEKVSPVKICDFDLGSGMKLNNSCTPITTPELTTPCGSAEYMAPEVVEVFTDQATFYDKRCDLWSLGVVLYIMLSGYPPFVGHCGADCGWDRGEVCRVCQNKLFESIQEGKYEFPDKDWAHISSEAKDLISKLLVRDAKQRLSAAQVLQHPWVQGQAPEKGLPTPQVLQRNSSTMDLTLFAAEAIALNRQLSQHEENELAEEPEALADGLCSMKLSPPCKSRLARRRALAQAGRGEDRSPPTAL
UniProt Q16620, whole entry, looked up: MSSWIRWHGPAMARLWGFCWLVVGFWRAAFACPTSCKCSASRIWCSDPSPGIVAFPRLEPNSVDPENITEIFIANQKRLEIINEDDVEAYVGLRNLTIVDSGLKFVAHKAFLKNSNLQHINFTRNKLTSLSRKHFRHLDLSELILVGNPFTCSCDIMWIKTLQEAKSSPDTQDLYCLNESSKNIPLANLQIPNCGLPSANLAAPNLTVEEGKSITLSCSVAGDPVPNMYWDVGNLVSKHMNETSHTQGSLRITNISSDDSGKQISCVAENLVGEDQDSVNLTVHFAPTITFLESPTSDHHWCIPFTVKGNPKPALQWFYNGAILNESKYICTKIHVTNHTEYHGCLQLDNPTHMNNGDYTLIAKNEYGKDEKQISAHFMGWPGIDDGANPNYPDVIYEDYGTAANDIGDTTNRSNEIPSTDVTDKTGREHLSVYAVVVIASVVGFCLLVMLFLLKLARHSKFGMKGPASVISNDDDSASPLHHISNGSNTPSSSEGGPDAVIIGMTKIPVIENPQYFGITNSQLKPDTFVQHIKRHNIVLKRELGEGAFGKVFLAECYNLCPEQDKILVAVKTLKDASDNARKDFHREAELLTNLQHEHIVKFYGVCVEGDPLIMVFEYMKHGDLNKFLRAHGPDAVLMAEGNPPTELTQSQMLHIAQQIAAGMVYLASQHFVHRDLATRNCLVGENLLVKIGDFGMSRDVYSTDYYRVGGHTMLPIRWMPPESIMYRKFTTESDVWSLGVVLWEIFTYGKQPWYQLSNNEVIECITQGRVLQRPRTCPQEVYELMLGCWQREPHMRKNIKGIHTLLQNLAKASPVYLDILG
UniProt Q16288, whole entry, looked up: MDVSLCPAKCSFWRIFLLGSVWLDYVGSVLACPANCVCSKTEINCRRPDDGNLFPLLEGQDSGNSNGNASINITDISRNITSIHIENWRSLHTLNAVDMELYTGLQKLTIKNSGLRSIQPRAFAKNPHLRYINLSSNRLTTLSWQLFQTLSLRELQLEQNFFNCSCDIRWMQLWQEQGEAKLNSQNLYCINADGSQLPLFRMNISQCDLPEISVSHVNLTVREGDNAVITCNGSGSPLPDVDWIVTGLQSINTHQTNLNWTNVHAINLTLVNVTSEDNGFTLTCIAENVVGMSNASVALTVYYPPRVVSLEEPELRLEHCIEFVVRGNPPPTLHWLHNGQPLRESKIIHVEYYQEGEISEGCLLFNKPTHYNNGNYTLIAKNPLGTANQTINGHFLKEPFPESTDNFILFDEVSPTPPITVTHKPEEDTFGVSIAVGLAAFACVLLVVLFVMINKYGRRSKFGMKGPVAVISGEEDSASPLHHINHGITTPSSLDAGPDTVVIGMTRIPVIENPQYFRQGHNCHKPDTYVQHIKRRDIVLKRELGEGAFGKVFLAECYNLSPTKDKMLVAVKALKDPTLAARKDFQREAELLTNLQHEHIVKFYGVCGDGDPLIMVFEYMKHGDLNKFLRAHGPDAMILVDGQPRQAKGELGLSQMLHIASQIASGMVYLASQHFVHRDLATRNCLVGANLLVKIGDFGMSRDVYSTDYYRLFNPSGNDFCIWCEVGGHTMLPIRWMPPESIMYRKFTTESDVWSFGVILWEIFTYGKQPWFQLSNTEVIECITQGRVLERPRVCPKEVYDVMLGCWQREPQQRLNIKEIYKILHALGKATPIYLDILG
UniProt O96013: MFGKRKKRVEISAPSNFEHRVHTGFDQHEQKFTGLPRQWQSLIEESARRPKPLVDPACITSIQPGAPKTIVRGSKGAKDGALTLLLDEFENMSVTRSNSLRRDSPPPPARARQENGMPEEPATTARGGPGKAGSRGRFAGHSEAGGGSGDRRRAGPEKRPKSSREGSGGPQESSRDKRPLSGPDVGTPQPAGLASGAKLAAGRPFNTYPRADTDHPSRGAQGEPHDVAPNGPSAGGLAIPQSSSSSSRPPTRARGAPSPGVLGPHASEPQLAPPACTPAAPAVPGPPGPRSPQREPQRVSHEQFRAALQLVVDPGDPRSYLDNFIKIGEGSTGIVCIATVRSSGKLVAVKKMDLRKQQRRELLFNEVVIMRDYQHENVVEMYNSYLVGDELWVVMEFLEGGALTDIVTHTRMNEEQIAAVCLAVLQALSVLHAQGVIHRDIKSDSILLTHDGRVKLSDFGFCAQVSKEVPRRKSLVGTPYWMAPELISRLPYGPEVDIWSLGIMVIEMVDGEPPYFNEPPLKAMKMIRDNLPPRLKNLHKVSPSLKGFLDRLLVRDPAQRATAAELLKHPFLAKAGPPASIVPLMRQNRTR
UniProt Q96KB5: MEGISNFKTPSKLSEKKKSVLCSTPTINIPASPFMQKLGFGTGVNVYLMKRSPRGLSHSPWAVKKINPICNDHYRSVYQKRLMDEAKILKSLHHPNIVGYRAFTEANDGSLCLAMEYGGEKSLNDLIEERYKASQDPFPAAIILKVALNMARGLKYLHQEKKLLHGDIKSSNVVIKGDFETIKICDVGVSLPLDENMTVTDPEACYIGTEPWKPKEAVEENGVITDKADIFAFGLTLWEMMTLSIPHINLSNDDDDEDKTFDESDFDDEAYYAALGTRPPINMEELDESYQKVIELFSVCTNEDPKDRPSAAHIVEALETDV
UniProt P09619, whole entry: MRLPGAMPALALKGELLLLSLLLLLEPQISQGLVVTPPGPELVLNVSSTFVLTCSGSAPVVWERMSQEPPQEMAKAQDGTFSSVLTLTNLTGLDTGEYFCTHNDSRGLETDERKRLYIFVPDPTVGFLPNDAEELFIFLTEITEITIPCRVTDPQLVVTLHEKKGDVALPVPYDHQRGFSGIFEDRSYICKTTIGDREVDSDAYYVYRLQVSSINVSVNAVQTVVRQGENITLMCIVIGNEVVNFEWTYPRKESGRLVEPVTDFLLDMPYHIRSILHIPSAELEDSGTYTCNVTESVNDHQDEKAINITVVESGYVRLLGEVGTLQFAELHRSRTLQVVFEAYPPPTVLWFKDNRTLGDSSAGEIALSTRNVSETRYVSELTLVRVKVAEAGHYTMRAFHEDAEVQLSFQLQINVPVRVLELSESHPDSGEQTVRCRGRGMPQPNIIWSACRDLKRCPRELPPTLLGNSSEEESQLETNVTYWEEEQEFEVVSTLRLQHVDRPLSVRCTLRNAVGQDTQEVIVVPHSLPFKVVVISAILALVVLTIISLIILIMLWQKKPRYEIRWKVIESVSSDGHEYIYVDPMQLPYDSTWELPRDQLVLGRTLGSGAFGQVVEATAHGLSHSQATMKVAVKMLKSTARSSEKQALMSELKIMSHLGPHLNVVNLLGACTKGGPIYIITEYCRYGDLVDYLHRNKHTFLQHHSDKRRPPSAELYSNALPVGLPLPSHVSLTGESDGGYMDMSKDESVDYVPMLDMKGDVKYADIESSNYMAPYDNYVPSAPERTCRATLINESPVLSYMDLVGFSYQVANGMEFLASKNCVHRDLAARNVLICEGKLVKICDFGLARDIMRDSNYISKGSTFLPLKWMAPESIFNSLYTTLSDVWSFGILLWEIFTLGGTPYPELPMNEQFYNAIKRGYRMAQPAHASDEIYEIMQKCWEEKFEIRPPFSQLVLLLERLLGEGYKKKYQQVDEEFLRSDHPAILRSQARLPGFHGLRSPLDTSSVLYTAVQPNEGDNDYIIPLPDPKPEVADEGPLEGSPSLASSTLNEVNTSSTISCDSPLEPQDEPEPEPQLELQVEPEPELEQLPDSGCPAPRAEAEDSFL
UniProt P49137, whole entry, looked up: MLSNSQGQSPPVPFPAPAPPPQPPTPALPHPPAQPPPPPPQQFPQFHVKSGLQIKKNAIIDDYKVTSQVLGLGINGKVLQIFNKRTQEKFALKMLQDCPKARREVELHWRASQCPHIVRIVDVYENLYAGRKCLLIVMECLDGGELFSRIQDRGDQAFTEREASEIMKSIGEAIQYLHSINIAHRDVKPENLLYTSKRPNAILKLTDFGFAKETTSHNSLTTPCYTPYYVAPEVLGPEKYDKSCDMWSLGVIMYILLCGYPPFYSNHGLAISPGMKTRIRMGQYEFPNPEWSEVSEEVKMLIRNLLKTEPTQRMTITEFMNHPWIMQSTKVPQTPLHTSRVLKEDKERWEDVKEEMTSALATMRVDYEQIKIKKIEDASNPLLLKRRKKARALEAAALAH
UniProt Q15118, whole entry, looked up: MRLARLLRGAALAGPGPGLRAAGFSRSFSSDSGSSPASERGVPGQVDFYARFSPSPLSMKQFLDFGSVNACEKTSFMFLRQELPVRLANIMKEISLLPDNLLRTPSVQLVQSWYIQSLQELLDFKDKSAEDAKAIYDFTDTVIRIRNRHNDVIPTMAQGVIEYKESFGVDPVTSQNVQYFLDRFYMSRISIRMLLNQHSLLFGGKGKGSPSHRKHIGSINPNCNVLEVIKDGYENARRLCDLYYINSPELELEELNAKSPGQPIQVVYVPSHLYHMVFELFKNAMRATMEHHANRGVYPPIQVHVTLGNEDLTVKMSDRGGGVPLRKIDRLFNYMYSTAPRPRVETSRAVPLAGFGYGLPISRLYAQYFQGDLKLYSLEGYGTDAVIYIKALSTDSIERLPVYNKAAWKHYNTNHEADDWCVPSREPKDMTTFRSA

Key:
Experiment in all cases: kinase-Nluc reporter destabilization hit call (1 = scored as downregulated) (binary); higher = compound decreases kinase abundance
Details in all cases: K562, 2-18 h
MAPK1 = MAPK1 (UniProt P28482)
MAPK4 = MAPK4 (UniProt P31152)
MKNK1 = MKNK1 (UniProt Q9BUB5)
NTRK2 = NTRK2 (UniProt Q16620)
NTRK3 = NTRK3 (UniProt Q16288)
PAK4 = PAK4 (UniProt O96013)
PBK = PBK (UniProt Q96KB5)
PDGFRB = PDGFRB (UniProt P09619)
MAPKAPK2 = MAPKAPK2 (UniProt P49137)
PDK1 = PDK1 (UniProt Q15118)

Measured: kinase-Nluc reporter destabilization hit call

Cn1cc(/C=C2\C(=O)Nc3cccnc32)c2ccccc21
inactive: MAPK1; 10 µM 0 | MAPK4; 10 µM 0 | MKNK1; 10 µM 0 | NTRK2; 10 µM 0 | NTRK3; 10 µM 0 | PAK4; 10 µM 0 | PBK; 10 µM 0 | PDGFRB; 10 µM 0

Cc1cnc(Nc2ccc(OCCN3CCCC3)cc2)nc1Nc1cccc(S(=O)(=O)NC(C)(C)C)c1 [Fedratinib (hydrochloride hydrate)]
inactive: MAPK1; 2.5 µM 0 | MAPK4; 2.5 µM 0 | MAPKAPK2; 2.5 µM 0 | MKNK1; 2.5 µM 0 | NTRK2; 2.5 µM 0 | PAK4; 2.5 µM 0 | PBK; 2.5 µM 0 | PDGFRB; 2.5 µM 0 | PDK1; 2.5 µM 0

CNC(=O)c1cc(Oc2ccc(NC(=O)Nc3ccc(Cl)c(C(F)(F)F)c3)cc2)ccn1 [Sorafenib (Tosylate)]
inactive: MAPK1; 10 µM 0 | MAPK4; 10 µM 0 | MAPKAPK2; 10 µM 0 | MKNK1; 10 µM 0 | NTRK2; 10 µM 0 | PAK4; 10 µM 0 | PBK; 10 µM 0 | PDGFRB; 10 µM 0 | PDK1; 10 µM 0

CN1CCN(c2ccc3nc(-c4c(N)c5c(F)cccc5[nH]c4=O)[nH]c3c2)CC1 [Dovitinib]
inactive: MAPK1; 2.5 µM 0 | MAPK4; 2.5 µM 0 | MAPKAPK2; 2.5 µM 0 | MKNK1; 2.5 µM 0 | NTRK2; 2.5 µM 0 | PAK4; 2.5 µM 0 | PBK; 2.5 µM 0 | PDGFRB; 2.5 µM 0 | PDK1; 2.5 µM 0

C[C@@H]1O[C@@H](Oc2c(-c3ccc(O)c(O)c3)oc3cc(O)cc(O)c3c2=O)[C@H](O)[C@H](O)[C@H]1O [Quercitrin]
inactive: MAPK1; 10 µM 0 | MAPK4; 10 µM 0 | MAPKAPK2; 10 µM 0 | MKNK1; 10 µM 0 | NTRK2; 10 µM 0 | NTRK3; 10 µM 0 | PAK4; 10 µM 0 | PBK; 10 µM 0 | PDGFRB; 10 µM 0 | PDK1; 10 µM 0

C[C@@]1(C(=O)Nc2ccc(F)nc2)CCCN1c1nc(Nc2cc(C3CC3)n[nH]2)c2cccn2n1
inactive: MAPK1; 10 µM 0 | MAPK4; 10 µM 0 | MAPKAPK2; 10 µM 0 | MKNK1; 10 µM 0 | NTRK2; 10 µM 0 | PAK4; 10 µM 0 | PBK; 10 µM 0 | PDGFRB; 10 µM 0 | PDK1; 10 µM 0

Cc1cc(Nc2cc(N3CCN(C)CC3)nc(/C=C/c3ccccc3)n2)n[nH]1 [ENMD-2076 (Tartrate)]
inactive: MAPK1; 2.5 µM 0 | MAPK4; 2.5 µM 0 | MAPKAPK2; 2.5 µM 0 | MKNK1; 2.5 µM 0 | NTRK2; 2.5 µM 0 | NTRK3; 2.5 µM 0 | PAK4; 2.5 µM 0 | PBK; 2.5 µM 0 | PDK1; 2.5 µM 0

Cc1cnc(Nc2ccc(OCCN3CCCC3)cc2)nc1Nc1cccc(S(=O)(=O)NC(C)(C)C)c1 [Fedratinib]
inactive: MAPK1; 2.5 µM 0 | MAPK4; 2.5 µM 0 | MAPKAPK2; 2.5 µM 0 | MKNK1; 2.5 µM 0 | NTRK2; 2.5 µM 0 | PAK4; 2.5 µM 0 | PBK; 2.5 µM 0 | PDGFRB; 2.5 µM 0 | PDK1; 2.5 µM 0

O=C(Nc1cccc(Cl)c1)Nc1ncc(CCNc2ncnc3ccsc23)s1 [SNS-314 (mesylate)]
inactive: MAPK1; 10 µM 0 | MAPK4; 10 µM 0 | MAPKAPK2; 10 µM 0 | MKNK1; 10 µM 0 | NTRK2; 10 µM 0 | NTRK3; 10 µM 0 | PAK4; 10 µM 0 | PBK; 10 µM 0 | PDK1; 10 µM 0

O=S(=O)(c1cccc2c(O)nccc12)N1CCCNCC1 [Hydroxyfasudil]
inactive: MAPK4; 10 µM 0 | MKNK1; 10 µM 0 | NTRK2; 10 µM 0 | NTRK3; 10 µM 0 | PAK4; 10 µM 0 | PBK; 10 µM 0 | PDGFRB; 10 µM 0 | PDK1; 10 µM 0

CC1(C)CNc2cc(NC(=O)c3cccnc3NCc3ccncc3)ccc21 [Motesanib (Diphosphate)]
inactive: MAPK1; 2.5 µM 0 | MAPK4; 2.5 µM 0 | MAPKAPK2; 2.5 µM 0 | MKNK1; 2.5 µM 0 | NTRK2; 2.5 µM 0 | NTRK3; 2.5 µM 0 | PAK4; 2.5 µM 0 | PBK; 2.5 µM 0 | PDGFRB; 2.5 µM 0 | PDK1; 2.5 µM 0

Cc1cc2ncnn2cc1Nc1ncc2c(n1)n(C1CCOCC1)c(=O)n2C
inactive: MAPK1; 10 µM 0 | MAPKAPK2; 10 µM 0 | MKNK1; 10 µM 0 | NTRK2; 10 µM 0 | PAK4; 10 µM 0 | PBK; 10 µM 0 | PDK1; 10 µM 0

N#CC(=Cc1cc(Cl)cc(Cl)c1)c1cccnc1
inactive: MAPK4; 10 µM 0 | MKNK1; 10 µM 0 | NTRK3; 10 µM 0 | PAK4; 10 µM 0 | PDGFRB; 10 µM 0

O=C1NCCc2[nH]c(-c3ccncc3)cc21
inactive: MAPK1; 2.5 µM 0 | MAPK4; 2.5 µM 0 | MKNK1; 2.5 µM 0 | NTRK2; 2.5 µM 0 | NTRK3; 2.5 µM 0 | PAK4; 2.5 µM 0 | PBK; 2.5 µM 0 | PDK1; 2.5 µM 0
